These are yes or no findings as the source states them, for the method shown. Sequences can lack the tags named with a protein.
Legend:
[1] = molecular target: LexA-Pol1(328–477) (S. pombe) (UniProt P28040); test: two-hybrid; Gal4 AD prey (pACT2) and LexA bait (pBTM116) in S. cerevisiae lexA op-lacZ strain CTY10-5d; β-galactosidase activity in Miller units
[2] = molecular target: LexA-Pol1(328–527) (S. pombe) (UniProt P28040); test: as above

Amino acid sequences for entries named in this document (tags omitted). A change or cut given only in a name is not applied to a line headed by its entry.
UniProt P28040: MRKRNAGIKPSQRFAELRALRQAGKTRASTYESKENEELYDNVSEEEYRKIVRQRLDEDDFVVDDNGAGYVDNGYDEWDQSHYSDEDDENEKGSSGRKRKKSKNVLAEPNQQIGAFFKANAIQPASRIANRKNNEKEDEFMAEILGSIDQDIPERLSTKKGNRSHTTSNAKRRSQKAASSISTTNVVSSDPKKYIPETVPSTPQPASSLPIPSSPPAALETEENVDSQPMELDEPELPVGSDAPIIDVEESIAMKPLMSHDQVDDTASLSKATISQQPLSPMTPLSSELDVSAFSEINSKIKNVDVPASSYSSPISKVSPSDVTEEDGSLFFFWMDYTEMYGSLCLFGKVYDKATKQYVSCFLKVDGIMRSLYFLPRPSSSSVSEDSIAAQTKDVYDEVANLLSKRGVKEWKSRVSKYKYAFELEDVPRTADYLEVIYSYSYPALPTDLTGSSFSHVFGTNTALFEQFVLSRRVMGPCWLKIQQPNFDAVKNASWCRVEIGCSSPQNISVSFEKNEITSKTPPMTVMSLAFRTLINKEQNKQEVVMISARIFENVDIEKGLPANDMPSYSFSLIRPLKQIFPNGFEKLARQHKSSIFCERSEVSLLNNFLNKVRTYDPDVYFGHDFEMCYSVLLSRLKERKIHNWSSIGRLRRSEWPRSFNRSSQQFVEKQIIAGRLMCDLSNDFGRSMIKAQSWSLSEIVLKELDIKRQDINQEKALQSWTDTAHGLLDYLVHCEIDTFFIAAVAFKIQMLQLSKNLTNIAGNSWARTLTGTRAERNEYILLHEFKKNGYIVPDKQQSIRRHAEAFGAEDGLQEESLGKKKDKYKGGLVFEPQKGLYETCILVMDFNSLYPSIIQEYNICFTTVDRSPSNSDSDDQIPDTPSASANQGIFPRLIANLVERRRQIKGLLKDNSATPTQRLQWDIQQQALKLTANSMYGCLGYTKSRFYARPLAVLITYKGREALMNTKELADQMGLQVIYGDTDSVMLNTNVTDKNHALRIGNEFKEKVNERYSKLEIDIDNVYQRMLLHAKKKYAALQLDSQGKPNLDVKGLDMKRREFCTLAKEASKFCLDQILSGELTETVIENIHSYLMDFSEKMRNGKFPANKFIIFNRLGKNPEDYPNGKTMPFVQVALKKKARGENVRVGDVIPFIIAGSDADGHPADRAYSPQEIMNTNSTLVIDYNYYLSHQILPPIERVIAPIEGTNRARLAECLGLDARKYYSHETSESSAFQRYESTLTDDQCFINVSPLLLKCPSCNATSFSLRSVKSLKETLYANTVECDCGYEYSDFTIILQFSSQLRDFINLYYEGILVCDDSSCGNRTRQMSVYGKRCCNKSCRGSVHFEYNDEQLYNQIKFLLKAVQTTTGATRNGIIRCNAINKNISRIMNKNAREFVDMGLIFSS

B1: Full-length Cdc27 fused to the activation domain (AD) of the yeast Gal4 protein (protein, UniProt P30261 1-372)
chain: MEEWRNFLDIKVINESSLVTVDNLSLQLDISSEKAQEYLNMFYQGNDFLYPIYLIHGQPIDDEINLEIDEESQPISNFPVLQYILCDKSSLQEKQSRLKSGYKTVIFALSSAPLSDFDELLPAVYEIREKDVLYKKEDADKYGFIFNENSVPRVLKKAPSTHSPQLSVPSKTSTIDKTDTRSTEKTKGKDIFSNARNQKGNSSRKNKKAPLENHKEKEPLLPKEEKLSEQAKRERDDLKNIMQLEDESVSTTSVHDSEDDNLDSNNFQLEIGTEAKSAAPDEPQEIIKSVSGGKRRGKRKVKKYATTKDEEGFLVTKEEEVWESFSEDENISTGTSNVVRNKPTTVNIATKKKNTAQSKPQQKSIMSFFGKK
Which results are given for B1?
binding [1]: no binding; binding [2]: no binding

— publication PMC545490, “Mapping and mutation of the conserved DNA polymerase interaction motif (DPIM) located in the C-terminal domain of fission yeast DNA polymerase δ subunit Cdc27” (BMC Molecular Biology, 2004)
